Data: the supplement of paper PMC11006884
The list shows a part of the results, in another mix than the full data.

Amino acid sequences for entries named in this document (tags omitted). A change or cut given only in a name is not applied to a line headed by its entry.
UniProt Q15643: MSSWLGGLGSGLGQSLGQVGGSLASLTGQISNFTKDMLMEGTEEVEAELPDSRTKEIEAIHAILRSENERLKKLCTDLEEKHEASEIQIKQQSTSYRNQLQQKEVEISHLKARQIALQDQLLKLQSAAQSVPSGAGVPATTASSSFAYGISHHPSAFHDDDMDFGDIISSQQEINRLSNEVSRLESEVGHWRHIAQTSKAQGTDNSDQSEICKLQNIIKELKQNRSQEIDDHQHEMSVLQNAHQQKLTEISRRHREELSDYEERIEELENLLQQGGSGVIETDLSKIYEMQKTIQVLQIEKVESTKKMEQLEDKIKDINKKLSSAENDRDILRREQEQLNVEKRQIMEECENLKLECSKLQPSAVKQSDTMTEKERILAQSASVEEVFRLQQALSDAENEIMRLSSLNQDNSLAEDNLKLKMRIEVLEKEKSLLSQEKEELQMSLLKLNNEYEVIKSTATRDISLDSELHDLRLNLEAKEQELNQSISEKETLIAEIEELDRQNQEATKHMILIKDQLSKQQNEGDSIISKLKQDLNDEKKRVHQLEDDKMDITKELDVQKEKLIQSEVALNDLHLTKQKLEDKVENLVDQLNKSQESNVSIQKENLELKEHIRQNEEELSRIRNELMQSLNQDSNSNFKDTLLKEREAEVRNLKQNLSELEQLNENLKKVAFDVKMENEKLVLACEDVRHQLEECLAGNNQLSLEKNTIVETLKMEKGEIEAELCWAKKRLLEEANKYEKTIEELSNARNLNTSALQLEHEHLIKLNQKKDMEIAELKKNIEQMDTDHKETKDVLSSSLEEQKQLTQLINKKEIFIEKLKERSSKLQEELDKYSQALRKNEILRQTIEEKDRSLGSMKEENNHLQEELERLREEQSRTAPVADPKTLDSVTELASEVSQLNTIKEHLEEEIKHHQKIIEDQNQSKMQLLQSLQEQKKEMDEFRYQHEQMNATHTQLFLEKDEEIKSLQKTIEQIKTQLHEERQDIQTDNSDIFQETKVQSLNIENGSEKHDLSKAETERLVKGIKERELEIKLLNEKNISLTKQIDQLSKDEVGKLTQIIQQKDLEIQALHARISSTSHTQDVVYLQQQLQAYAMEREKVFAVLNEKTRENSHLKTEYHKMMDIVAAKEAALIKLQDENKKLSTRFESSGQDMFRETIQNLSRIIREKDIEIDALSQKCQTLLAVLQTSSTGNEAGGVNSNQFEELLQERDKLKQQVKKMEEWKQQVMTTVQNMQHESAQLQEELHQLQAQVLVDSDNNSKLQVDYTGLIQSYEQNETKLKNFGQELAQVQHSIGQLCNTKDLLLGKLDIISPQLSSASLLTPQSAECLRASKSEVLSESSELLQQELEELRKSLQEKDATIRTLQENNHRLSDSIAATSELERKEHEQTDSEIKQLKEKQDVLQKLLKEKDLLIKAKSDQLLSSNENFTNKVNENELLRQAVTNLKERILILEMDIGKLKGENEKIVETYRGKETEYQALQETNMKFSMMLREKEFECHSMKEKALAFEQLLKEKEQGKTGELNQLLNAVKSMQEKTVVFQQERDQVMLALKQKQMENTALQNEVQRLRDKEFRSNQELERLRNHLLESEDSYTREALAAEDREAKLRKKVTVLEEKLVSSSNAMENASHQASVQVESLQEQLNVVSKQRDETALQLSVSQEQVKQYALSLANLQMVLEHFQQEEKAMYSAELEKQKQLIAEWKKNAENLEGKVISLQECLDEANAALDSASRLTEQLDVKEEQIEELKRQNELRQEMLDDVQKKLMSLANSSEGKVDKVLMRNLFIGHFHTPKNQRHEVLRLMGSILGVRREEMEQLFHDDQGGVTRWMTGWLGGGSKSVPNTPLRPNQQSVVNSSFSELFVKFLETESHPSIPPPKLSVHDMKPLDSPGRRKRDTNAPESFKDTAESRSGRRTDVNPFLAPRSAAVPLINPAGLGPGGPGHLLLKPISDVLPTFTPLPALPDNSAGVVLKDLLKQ
UniProt Q3LXA3: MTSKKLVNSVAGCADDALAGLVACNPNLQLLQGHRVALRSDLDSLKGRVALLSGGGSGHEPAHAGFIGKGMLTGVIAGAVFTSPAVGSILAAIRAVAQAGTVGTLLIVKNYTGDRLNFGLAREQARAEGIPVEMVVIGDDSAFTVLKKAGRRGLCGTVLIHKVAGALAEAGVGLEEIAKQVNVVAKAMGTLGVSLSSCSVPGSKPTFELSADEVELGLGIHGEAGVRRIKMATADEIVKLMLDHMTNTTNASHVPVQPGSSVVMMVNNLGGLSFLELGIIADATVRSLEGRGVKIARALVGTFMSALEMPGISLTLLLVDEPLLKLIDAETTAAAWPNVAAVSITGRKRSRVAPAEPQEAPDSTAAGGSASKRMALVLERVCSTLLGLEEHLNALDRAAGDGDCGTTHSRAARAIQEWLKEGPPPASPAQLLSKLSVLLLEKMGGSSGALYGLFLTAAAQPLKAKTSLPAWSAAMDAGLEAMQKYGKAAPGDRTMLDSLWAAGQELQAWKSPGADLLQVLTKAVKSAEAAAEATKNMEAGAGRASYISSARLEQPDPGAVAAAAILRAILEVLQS
UniProt Q16576, whole entry, looked up: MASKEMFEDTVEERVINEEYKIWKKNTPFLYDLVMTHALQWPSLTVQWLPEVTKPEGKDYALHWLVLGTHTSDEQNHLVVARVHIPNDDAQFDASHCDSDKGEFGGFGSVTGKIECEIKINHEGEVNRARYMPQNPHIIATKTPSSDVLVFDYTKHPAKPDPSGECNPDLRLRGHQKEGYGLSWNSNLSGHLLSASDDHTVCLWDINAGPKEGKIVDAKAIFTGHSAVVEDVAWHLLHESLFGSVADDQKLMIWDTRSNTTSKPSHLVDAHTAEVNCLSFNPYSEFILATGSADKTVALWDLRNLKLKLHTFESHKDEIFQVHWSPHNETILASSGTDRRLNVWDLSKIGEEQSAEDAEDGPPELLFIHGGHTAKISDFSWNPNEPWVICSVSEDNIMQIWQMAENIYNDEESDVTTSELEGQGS
UniProt Q16822, whole entry: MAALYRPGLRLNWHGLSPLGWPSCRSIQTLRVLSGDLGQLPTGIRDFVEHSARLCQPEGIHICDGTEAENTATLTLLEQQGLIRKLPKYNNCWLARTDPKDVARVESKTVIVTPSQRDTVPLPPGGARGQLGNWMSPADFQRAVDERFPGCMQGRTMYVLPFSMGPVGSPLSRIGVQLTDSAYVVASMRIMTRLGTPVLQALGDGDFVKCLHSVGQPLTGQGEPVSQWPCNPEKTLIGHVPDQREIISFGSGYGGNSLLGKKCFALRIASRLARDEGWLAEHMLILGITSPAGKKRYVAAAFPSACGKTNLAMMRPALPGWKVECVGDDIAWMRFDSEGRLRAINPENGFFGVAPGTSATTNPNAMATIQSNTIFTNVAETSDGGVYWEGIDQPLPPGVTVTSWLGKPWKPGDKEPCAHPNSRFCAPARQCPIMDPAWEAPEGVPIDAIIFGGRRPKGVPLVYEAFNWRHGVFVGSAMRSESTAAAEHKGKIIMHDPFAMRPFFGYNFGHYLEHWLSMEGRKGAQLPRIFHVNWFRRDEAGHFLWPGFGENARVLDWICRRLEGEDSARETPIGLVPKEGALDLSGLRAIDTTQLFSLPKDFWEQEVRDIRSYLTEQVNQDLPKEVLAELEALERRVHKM
UniProt Q15424: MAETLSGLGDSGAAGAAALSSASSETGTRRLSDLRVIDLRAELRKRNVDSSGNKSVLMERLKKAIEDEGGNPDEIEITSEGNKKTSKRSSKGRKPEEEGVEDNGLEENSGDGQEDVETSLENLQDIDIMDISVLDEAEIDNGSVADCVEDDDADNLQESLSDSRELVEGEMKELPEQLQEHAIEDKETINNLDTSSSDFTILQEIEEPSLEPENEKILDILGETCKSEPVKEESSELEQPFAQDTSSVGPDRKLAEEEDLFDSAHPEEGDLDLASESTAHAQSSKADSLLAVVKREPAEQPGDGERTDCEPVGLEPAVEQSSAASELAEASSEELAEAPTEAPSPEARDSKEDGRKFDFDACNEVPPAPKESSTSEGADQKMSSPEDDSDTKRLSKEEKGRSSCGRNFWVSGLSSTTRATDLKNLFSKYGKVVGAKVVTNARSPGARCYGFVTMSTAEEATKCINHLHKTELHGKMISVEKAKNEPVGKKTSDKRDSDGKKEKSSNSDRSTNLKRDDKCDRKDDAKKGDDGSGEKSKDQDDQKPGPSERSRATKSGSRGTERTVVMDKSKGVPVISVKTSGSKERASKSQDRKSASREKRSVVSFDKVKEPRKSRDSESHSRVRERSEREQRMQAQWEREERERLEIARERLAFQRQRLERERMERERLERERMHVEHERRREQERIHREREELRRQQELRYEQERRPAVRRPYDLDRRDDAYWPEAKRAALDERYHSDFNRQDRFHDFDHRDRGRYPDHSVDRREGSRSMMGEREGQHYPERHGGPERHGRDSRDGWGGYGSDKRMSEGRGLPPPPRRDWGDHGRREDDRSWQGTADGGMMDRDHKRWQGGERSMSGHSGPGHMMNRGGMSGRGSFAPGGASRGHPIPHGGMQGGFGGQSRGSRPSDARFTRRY
UniProt Q53EL6: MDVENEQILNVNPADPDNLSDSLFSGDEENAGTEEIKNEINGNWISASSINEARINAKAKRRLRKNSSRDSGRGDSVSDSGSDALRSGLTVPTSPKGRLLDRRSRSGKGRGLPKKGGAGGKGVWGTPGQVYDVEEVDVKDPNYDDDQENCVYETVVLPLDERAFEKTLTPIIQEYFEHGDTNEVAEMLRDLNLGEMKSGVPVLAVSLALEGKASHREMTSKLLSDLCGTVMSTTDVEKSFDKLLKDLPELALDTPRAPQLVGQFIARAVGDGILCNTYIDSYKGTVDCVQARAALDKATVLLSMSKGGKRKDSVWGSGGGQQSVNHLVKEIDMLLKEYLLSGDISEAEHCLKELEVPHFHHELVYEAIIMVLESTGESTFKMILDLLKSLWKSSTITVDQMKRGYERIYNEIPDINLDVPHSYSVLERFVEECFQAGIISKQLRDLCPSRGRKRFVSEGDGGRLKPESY
UniProt Q4VCS5: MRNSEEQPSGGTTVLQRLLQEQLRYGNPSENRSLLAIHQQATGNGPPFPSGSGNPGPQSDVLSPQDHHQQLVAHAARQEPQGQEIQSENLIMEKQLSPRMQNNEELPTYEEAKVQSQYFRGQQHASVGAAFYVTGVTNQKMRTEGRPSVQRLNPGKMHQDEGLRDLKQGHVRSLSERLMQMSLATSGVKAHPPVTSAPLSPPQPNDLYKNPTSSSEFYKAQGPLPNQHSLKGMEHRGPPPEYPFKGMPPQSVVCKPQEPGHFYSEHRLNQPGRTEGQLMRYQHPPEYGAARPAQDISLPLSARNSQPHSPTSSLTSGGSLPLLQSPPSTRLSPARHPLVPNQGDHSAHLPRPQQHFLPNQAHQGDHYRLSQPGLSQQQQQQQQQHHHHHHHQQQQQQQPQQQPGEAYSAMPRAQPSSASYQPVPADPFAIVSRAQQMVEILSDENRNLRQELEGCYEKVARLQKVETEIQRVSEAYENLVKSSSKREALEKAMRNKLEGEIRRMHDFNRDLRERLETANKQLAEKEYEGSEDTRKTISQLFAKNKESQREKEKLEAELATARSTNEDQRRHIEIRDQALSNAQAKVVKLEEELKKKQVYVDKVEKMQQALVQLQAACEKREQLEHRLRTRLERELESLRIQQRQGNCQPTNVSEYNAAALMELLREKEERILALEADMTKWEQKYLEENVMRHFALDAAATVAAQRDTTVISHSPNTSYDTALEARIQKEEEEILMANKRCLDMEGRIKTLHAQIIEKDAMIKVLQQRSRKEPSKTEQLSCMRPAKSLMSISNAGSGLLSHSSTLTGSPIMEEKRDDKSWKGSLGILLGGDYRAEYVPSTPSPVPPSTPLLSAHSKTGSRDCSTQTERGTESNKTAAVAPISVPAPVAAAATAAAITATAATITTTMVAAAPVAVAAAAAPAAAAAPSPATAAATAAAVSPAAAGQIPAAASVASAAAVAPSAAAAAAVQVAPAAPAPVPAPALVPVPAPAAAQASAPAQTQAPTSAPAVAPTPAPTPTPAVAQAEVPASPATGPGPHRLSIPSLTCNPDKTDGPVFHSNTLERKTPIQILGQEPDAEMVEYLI
UniProt Q15084: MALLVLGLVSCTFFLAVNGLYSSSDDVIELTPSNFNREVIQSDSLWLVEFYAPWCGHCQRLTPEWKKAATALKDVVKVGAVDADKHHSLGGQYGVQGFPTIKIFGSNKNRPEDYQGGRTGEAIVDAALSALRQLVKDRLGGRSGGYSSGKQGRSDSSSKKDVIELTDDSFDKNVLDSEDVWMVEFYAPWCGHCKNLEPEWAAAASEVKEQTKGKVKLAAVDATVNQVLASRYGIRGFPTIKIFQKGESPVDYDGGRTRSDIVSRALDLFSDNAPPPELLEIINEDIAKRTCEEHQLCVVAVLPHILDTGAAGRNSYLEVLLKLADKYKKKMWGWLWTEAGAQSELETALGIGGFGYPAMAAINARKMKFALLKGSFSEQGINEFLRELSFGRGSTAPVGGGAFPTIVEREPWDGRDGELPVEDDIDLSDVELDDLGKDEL

compound: COC(=O)C#Cc1ccccc1 [methyl 3-phenylpropiolate]; assay: log2 ratio of iodoacetamide-alkyne labeling of the cysteine site, DMSO over compound (competition); higher = stronger covalent engagement of the cysteine by the compound, active = 1 or more; details: 500 µM; treatment time 1 h; system: HEK293T cell lysate
How it was run: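 Three replicates, each with duplicate channels, were prepared from HEK293T lysate (2 mg/mL) treated with vehicle or electrophile at 500 µM for 1 h at ambient temperature. Iodoacetamide alkyne was then applied for 1 h, and samples were clicked to sCIP-TMT reagents, pooled, trypsin-digested overnight at 37 °C, enriched on streptavidin, acid-eluted and analysed on Orbitrap Eclipse LC-MS/MS with FAIMS, with FragPipe quantification. The log2 competition ratio per cysteine is the mean control-channel divided by the mean compound-channel reporter intensity. Cysteines quantified in only one replicate were left out.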

log2 ratio of iodoacetamide-alkyne labeling, active:
AKIRIN2 C3 (UniProt Q53H80) 1.11

log2 ratio of iodoacetamide-alkyne labeling, inactive:
TRIP11 C1722 (UniProt Q15643) 0.115
UBE3C C252 (UniProt Q15386) 0.306
UniProt Q3LXA3_C13 0.218
UBE3C C158 (UniProt Q15386) 0.194
PDS5A C581 (UniProt Q29RF7) 0.744
ETFDH C561 (UniProt Q16134) 0.595
RBBP7 C97 (UniProt Q16576) 0.429
LACTB2 C100 (UniProt Q53H82) 0.343
ERCC6L C356 (UniProt Q2NKX8) 0.193
PCK2 C431 (UniProt Q16822) -0.0705
INF2 C1029 (UniProt Q27J81) 0.557
CDK10 C8 (UniProt Q15131) 0.447
SETDB1 C987 (UniProt Q15047) -0.18
TXNRD1 C209 (UniProt Q16881) -0.0684
HNRNPUL2 C308 (UniProt Q1KMD3) 0.826
UniProt Q16512_C120 0.29
CEP55 C159 (UniProt Q53EZ4) -0.0249
FASTKD1 C46 (UniProt Q53R41) 0.53
EIF4H C85 (UniProt Q15056) 0.25
HS1BP3 C287 (UniProt Q53T59) 0.16
MAPRE1 C228 (UniProt Q15691) 0.00341
KIF14 C610 (UniProt Q15058) 0.442
LRRFIP1 C334 (UniProt Q32MZ4) -0.0513
FSCN1 C80 (UniProt Q16658) 0.0991
LRRC14 C68 (UniProt Q15048) 0.318
SAFB C448 (UniProt Q15424) 0.229
QSER1 C530 (UniProt Q2KHR3) 0.146
PPA1 C242 (UniProt Q15181) -0.191
NONO C208 (UniProt Q15233) 0.111
PDCD4 C150 (UniProt Q53EL6) 0.564
HNRNPUL2 C57 (UniProt Q1KMD3) 0.32
AMOT C741 (UniProt Q4VCS5) 0.547
PDIA6 C193 (UniProt Q15084) 0.272
LLGL1 C636 (UniProt Q15334) 0.538
DBN1 C308 (UniProt Q16643) -0.11
GLE1 C287 (UniProt Q53GS7) 0.013

2 records drawn at random from those above, as already listed:
log2 ratio of iodoacetamide-alkyne labeling, inactive:
KIF14 C610 (UniProt Q15058) 0.442
HS1BP3 C287 (UniProt Q53T59) 0.16
